Values joined by “and” are separate entries in the source; they are usually repeats but may differ in a detail not shown here. Equal entries are not always repeated. The list shows a part of the results. The main result of the screen is listed elsewhere. These columns were measured beside it and carry no call. Compounds called inactive in the main read-out are mostly missing here. Words in brackets tell the shape of the fitted curve; partial curves, single points and poor fits give uncertain potencies.

This assay can be described thus: qHTS Assay for Modulators of Lamin A Splicing. The following applies: HeLa LMNA splicing GFP/RFP minigene ratio, 48 h. The procedure, abridged: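 Read-out is the ratio of GFP to DsRed2 object intensity, acquired by 488 nm laser-scanning cytometry on HeLa lamin A-EGFP minigene reporter cells. Compound incubation 48 hrs at 37 °C in Opti-MEM with 2% FBS; DMSO 0.5% final.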

Where [1] appears, read: measured here: GFP splicing reporter channel.
Setting [2] is: measured here: RFP viability control channel.

For the molecule `Cc1nnc(N)nc1C`, the half-maximal activity concentration (AC50) runs as follows: under setting [1], 0.708 µM [falling, full curve, poor fit]; under setting [2], 0.631 µM [falling, full curve].

For `Cc1ccc(OCc2nc(C#N)c(N3CCN(Cc4ccccc4)CC3)o2)cc1`, the concentration at half-maximal activity (AC50) under setting [2] is 17.8 µM [rising, partial curve].

As to `CCN(CC)S(=O)(=O)c1ccc2oc(Nc3ccc4c(c3)OCCO4)nc2c1`, the AC50 under setting [2] is 0.794 µM [rising, partial curve].

Consider `Cc1cccc(NC(=O)c2cn(-c3ccccc3)nc2-c2ccccc2)c1`, for which the AC50 under setting [2] was 0.00447 µM [rising, full curve, poor fit].

Turning to `O=C(CCCN1C(=O)/C(=C/c2cccs2)SC1=S)NNC(=O)c1ccccc1O`, under setting [2], the concentration at half-maximal activity (AC50) is 11.2 µM [rising, partial curve, poor fit].

On to `COc1cc2c(cc1OC)-c1nnc(C)n1C(C)(C)C2`, for which the AC50 under setting [2] is 2.82 µM [falling, full curve, poor fit].

On to `O=C1CN(C(=O)CSc2nnnn2-c2ccc(Cl)cc2)c2ccccc2N1`, for which the AC50 is, setting by setting: under setting [1], 35.5 µM [rising, single point]; under setting [2], 35.5 µM [rising, single point].

Consider `C=CCOc1c(Br)cc(/C=N/O)cc1OCC`, for which the AC50 under setting [2] was 31.6 µM [rising, single point].

For `COC(=O)/C(=N/Nc1ccc(C)cc1)N1CCCc2ccccc21`, the AC50 under setting [2] is 15.8 µM [rising, partial curve].

For the molecule `Cc1ccc(-n2c(SCC(=O)N/N=C/c3c(C)nn(-c4ccccc4)c3C)nc3ccccc3c2=O)cc1`, under setting [2], the AC50 was 3.98 µM [rising, full curve].

Turning to `O=C(Nc1ccccc1N1CCOCC1)C1(c2ccc(Cl)cc2)CCC1`, the AC50 under setting [2] was 0.00447 µM [rising, full curve, poor fit].

As to `O=C(Nc1ccc(Cl)cc1)Nc1nnc(CSCc2ccc(Cl)cc2)s1`, the AC50 is, setting by setting: under setting [1], 3.98 µM [rising, single point]; under setting [2], 3.98 µM [rising, partial curve].

In the case of `COC(=O)c1c(C)oc2ccc(N(C(=O)c3ccncc3)S(=O)(=O)c3ccc(C)cc3C)cc12`, under setting [2], the AC50 is 3.16 µM [rising, partial curve].

In the case of `CCOC(=O)c1[nH]c(C)c(CCC(=O)NCc2ccccc2)c1C`, the AC50 under setting [1] was 28.2 µM [rising, single point] and the AC50 under setting [2] was 35.5 µM [rising, single point].

`O=C(Sc1cccc2cccnc12)c1ccc(F)cc1`: the half-maximal activity concentration (AC50) was 12.6 µM [falling, partial curve] under setting [1] and 35.5 µM [falling, single point] under setting [2].

With `O=C(O)[C@@H]1C[C@@H](C(=O)O)N1`, the half-maximal activity concentration (AC50) under setting [2] is 5.62 µM [falling, single point].

In the case of `CC(=O)Nc1cccc(NC(=O)Nc2cccc(Cl)c2C)c1`, the AC50 is, setting by setting: under setting [1], 5.62 µM [falling, single point]; under setting [2], 6.31 µM [falling, single point].

For the molecule `Clc1ccc(N/N=C/c2cccnc2)cc1`, the AC50 under setting [2] was 35.5 µM [rising, single point].

As to `Cc1ccc(NNc2c(C)nc3ccccc3nc2=O)cc1`, the AC50 is, setting by setting: under setting [1], 2.24 µM [falling, partial curve, poor fit]; under setting [2], 2.51 µM [falling, partial curve].

In the case of `COc1cc2c(c(OC)c1OC)CC(=O)N(C)CC2`, the AC50 reads like this: under setting [1], 0.251 µM [falling, full curve, poor fit]; under setting [2], 0.1 µM [falling, full curve, poor fit].

Turning to `Cc1ccccc1-c1nc(CS(=O)(=O)CC(=O)N(C)C2CCCCC2)c(C)o1`, the AC50 under setting [2] was 8.91 µM [rising, partial curve].

`O=C(NCC(c1cccnc1)N1CCN(c2ccccc2F)CC1)c1cccc(Cl)c1` (stereo not given): the half-maximal activity concentration (AC50) was 35.5 µM [rising, single point] under setting [1] and 31.6 µM [rising, single point] under setting [2].

In the case of `Cc1ccc(S(=O)(=O)N2CCN(S(=O)(=O)N(C)C)CC2)c(C)c1`, under setting [2], the AC50 is 22.4 µM [rising, single point].

On to `CC1CCN(CC(O)COCCC23CC4CC(CC(C4)C2)C3)CC1` (stereo not given), for which the AC50 under setting [2] was 31.6 µM [rising, single point].

Take `CCCCSCCCNC(=O)CN1C(=O)c2cccnc2Oc2ccc(Cl)cc21`: the AC50 reads like this: under setting [1], 3.55 µM [falling, single point]; under setting [2], 1.12 µM [falling, single point].

As to `CCn1c(C(=O)NC(C)c2ccc3c(c2)OCCO3)cc2sccc21` (stereo not given), the AC50 under setting [2] is 12.6 µM [rising, single point].

Turning to `Cc1cc(-c2nc3cccnc3s2)ccc1NS(=O)(=O)c1ccc2c(c1)OCCO2`, the concentration at half-maximal activity (AC50) under setting [1] was 15.8 µM [rising, single point] and the AC50 under setting [2] was 25.1 µM [rising, single point].

As for `CC(C)(C)c1ccccc1OCCOCCSc1ncccn1`, the AC50 is 12.6 µM [rising, partial curve] under setting [1] and 12.6 µM [rising, single point] under setting [2].

Turning to `CS/C(=N\S(=O)(=O)c1cccs1)Nc1ccc(N2CCOCC2)cc1`, the AC50 under setting [2] is 35.5 µM [rising, single point].

Turning to `CCOc1ccc(S(=O)(=O)NCC(c2ccco2)S(=O)(=O)c2cccs2)cc1` (stereo not given), under setting [2], the concentration at half-maximal activity (AC50) is 0.00398 µM [falling, full curve, poor fit].

Turning to `CCOC(=O)CNC(c1ccccc1)c1cc(Br)ccc1NC(=O)CCN1CCOCC1` (stereo not given), the AC50 under setting [1] is 35.5 µM [falling, single point] and the AC50 under setting [2] is 12.6 µM [falling, partial curve].

As for `CC1(C(=O)OCC(=O)N2c3ccccc3Sc3ccccc32)CC1(Cl)Cl` (stereo not given), the AC50 under setting [2] was 35.5 µM [rising, single point].

Consider `CCN(CC)CCCC(C)Nc1c2ccc(Cl)cc2nc2ccc(OC)cc12` (stereo not given), for which the AC50 by setting is: under setting [1], 14.1 µM [falling, partial curve] and 4.47 µM [falling, full curve, poor fit]; under setting [2], 35.5 µM [falling, single point] and 4.47 µM [falling, full curve, poor fit].

With `N#Cc1cc2ccc(N3CCOCC3)cc2cc1C#N`, under setting [2], the AC50 is 35.5 µM [falling, single point].

`CCn1c(SCC(=O)Nc2cc(OC)c(OC)c(OC)c2)nnc1-c1cccs1`: the AC50 reads like this: under setting [1], 12.6 µM [rising, partial curve]; under setting [2], 12.6 µM [rising, partial curve].

These data come from PubChem BioAssay AID1487 (National Center for Advancing Translational Sciences (NCATS), 2009).
